In data set [1] the target is Evi1 (recombinant, Cusabio) (UniProt P14404). Briefly: EMSA. The following applies: LightShift Chemiluminescent EMSA Kit per manual; buffer composition, pH and temperature not stated; nondenaturing PAGE; commercial protein.
For data set [2] the target is unchanged. Briefly: competition with a labelled probe. Particulars: 100-fold molar excess unlabeled WT probe reduced complex; LightShift Chemiluminescent EMSA Kit per manual; buffer composition, pH and temperature not stated; nondenaturing PAGE; commercial protein.

The chains behind the UniProt entries cited, without tags or fusion partners. Where a name states a change or a piece, a line headed by the entry shows the natural chain unless it says otherwise.
UniProt P14404: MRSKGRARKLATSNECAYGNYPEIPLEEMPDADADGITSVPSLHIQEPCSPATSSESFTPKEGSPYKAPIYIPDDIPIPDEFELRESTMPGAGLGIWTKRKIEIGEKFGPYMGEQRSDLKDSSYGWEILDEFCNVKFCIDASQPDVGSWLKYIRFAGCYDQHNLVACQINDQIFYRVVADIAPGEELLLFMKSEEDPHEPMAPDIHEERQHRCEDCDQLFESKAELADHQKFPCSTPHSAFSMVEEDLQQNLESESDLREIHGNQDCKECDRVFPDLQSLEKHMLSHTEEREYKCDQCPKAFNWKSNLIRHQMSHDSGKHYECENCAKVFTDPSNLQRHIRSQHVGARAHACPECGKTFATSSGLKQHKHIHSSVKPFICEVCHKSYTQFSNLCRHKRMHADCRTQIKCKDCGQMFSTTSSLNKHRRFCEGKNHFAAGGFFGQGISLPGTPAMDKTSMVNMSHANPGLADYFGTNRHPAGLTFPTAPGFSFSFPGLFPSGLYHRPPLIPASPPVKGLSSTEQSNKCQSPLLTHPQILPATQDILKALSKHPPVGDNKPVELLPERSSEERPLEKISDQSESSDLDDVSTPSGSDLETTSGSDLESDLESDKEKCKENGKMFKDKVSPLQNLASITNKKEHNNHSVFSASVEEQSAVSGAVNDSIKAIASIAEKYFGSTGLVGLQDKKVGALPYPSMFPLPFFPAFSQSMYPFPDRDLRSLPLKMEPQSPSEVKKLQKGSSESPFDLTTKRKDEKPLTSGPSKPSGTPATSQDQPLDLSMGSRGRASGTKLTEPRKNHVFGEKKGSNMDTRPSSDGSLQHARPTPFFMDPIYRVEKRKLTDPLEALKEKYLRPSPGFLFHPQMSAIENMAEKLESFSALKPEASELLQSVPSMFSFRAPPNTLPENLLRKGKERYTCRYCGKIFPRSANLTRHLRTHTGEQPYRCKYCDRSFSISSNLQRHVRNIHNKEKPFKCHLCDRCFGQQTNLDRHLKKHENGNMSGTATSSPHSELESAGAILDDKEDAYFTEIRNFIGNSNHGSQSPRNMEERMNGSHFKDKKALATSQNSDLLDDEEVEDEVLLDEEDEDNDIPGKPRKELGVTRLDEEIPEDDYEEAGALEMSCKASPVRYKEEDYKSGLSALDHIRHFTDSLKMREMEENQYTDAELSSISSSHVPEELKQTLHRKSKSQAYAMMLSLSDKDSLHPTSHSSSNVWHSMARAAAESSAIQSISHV

Construct, isoform or probe ends are uncertain for at least one entry.

Consider one sequence from PMC5008331.

For the sequence “AAGGAAAGAATAGAATAGAACGGC (double strand) [AK015487 promoter EMSA probe (WT)]”, the binding result in data set [1] and in data set [2] was “binds” in each case.
